# Reference: the supplement of paper PMC10849652
# Chains of the proteins cited; added tags and fusions are not shown. Lines headed by an entry give the natural chain unless they say otherwise; changes in a name come on top.
# UniProt P17542, whole entry, looked up: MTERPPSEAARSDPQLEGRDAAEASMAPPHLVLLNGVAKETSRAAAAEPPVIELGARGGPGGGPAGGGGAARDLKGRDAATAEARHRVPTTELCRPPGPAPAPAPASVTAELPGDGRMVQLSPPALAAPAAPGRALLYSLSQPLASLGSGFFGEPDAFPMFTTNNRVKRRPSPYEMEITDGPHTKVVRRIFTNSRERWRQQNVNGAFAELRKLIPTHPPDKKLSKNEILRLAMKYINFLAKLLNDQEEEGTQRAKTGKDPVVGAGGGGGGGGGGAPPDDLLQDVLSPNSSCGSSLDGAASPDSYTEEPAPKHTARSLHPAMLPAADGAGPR
# UniProt Q6NXT6: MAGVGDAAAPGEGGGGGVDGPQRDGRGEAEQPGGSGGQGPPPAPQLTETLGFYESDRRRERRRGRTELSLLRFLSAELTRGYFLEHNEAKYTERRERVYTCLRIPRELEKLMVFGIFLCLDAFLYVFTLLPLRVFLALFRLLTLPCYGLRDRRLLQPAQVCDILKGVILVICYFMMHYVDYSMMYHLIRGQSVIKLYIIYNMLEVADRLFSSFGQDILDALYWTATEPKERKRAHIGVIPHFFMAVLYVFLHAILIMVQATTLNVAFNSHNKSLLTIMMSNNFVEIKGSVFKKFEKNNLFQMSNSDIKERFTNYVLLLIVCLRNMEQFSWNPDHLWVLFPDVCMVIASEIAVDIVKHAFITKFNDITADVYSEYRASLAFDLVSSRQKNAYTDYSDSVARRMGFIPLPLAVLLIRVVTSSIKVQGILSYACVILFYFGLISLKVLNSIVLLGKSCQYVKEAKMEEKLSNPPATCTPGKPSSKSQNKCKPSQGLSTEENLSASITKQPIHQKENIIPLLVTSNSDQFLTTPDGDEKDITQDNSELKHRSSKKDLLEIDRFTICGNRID
# UniProt P27105: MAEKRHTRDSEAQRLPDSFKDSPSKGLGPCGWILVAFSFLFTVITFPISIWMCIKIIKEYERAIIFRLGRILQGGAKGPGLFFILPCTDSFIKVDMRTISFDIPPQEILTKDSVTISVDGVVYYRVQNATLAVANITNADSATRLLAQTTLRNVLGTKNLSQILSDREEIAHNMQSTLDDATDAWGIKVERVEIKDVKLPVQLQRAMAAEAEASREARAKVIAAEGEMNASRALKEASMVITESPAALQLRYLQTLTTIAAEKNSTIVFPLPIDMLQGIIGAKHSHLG
# UniProt Q15526: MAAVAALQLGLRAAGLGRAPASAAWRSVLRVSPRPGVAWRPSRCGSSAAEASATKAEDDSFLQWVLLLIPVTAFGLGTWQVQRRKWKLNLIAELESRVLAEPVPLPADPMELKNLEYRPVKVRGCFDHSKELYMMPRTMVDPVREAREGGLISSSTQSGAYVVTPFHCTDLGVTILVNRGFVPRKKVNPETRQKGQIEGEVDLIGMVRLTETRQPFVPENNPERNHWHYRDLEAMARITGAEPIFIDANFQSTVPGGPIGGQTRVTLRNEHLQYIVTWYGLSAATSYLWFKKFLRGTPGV
# UniProt Q96A49: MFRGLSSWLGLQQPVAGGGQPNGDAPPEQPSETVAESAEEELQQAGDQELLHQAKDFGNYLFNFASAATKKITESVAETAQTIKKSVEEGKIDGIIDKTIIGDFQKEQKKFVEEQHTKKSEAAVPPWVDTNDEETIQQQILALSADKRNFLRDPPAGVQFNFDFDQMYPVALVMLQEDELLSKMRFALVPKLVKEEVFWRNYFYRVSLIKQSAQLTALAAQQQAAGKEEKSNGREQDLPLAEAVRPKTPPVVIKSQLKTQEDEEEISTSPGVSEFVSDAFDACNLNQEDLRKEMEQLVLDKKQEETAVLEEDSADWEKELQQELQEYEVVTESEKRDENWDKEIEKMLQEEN
# UniProt Q92844: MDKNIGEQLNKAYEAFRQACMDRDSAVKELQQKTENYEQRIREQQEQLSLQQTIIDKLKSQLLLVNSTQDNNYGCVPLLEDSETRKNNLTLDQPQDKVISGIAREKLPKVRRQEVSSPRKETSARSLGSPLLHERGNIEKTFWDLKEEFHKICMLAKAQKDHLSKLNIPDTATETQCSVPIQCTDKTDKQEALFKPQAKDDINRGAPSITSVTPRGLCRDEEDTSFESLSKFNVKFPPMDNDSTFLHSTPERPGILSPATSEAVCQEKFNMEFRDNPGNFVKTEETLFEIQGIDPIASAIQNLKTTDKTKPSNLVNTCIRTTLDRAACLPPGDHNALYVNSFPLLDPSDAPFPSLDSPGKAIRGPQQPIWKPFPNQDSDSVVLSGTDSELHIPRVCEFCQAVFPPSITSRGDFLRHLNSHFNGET
# UniProt Q8IYB8: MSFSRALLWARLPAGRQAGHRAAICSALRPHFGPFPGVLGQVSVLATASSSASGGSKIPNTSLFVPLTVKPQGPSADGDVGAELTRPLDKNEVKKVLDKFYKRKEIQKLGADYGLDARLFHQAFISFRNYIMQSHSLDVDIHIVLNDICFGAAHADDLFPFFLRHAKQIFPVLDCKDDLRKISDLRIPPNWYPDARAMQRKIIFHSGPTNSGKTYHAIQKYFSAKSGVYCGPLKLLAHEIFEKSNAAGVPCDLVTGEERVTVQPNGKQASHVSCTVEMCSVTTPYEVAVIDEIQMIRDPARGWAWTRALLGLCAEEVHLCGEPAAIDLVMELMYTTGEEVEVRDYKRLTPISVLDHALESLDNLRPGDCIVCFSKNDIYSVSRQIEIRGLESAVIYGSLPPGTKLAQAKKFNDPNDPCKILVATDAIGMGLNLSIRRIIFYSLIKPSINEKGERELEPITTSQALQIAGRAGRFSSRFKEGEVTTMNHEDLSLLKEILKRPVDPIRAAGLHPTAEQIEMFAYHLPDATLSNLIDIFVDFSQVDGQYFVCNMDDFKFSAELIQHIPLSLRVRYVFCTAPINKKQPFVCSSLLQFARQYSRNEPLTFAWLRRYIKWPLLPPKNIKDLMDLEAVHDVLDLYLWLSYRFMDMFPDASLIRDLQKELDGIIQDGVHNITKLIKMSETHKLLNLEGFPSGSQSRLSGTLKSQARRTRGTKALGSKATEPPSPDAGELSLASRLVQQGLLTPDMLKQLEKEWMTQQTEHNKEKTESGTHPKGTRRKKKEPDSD
# UniProt P63165, whole entry, looked up: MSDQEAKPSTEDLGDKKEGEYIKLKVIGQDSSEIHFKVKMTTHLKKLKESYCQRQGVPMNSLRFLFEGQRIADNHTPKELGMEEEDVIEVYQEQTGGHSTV
# UniProt O75410: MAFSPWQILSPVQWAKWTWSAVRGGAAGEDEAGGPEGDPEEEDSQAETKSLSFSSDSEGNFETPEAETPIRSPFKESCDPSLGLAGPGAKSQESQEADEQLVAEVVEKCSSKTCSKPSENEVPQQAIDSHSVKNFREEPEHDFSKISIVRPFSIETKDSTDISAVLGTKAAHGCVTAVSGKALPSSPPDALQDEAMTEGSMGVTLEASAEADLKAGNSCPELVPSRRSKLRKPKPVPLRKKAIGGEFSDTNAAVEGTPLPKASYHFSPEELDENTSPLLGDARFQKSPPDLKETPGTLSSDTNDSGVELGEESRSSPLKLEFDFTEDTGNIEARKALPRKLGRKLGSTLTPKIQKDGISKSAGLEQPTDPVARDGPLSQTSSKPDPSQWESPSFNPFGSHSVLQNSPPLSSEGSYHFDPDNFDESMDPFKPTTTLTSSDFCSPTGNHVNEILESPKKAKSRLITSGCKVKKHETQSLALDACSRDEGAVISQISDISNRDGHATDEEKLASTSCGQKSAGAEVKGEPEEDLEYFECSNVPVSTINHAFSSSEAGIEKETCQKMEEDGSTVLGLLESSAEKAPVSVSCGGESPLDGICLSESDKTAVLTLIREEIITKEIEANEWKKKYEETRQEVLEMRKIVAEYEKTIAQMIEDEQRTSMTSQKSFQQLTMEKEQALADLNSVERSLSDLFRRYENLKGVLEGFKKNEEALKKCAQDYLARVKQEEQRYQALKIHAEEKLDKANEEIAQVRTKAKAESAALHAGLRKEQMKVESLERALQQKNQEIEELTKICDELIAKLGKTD
# UniProt O43752: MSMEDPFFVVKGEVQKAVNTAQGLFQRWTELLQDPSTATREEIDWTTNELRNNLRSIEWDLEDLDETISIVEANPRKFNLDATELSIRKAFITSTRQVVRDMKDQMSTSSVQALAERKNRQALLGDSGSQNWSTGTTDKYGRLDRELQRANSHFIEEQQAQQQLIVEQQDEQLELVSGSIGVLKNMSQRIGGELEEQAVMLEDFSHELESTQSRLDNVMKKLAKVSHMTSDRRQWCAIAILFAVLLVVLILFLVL
# UniProt Q8IWZ8: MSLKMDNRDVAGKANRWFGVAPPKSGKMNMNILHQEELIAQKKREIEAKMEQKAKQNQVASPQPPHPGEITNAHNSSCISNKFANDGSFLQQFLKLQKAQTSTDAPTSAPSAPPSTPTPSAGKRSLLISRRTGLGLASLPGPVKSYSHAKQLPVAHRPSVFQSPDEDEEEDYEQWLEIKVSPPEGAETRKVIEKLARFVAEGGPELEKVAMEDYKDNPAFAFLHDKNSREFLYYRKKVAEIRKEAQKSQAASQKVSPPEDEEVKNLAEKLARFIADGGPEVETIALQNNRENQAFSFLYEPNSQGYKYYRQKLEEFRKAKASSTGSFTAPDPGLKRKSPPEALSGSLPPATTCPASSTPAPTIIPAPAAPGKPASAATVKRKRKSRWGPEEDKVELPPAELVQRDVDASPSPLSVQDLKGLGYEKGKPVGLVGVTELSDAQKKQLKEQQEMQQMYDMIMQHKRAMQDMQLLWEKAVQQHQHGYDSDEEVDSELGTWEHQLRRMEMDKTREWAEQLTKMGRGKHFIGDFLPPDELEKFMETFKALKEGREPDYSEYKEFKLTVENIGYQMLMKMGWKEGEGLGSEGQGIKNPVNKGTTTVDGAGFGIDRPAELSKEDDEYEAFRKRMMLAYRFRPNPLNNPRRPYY
# UniProt P53597: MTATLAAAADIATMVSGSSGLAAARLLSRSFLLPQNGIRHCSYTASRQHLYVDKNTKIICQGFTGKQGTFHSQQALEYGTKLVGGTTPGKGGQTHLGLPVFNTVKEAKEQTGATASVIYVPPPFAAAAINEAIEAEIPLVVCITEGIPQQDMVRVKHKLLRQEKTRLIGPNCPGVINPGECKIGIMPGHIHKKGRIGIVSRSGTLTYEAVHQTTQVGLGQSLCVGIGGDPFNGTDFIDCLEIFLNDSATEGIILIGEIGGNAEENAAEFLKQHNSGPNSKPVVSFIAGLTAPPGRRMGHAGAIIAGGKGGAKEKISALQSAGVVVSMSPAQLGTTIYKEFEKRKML
# UniProt Q9BW92: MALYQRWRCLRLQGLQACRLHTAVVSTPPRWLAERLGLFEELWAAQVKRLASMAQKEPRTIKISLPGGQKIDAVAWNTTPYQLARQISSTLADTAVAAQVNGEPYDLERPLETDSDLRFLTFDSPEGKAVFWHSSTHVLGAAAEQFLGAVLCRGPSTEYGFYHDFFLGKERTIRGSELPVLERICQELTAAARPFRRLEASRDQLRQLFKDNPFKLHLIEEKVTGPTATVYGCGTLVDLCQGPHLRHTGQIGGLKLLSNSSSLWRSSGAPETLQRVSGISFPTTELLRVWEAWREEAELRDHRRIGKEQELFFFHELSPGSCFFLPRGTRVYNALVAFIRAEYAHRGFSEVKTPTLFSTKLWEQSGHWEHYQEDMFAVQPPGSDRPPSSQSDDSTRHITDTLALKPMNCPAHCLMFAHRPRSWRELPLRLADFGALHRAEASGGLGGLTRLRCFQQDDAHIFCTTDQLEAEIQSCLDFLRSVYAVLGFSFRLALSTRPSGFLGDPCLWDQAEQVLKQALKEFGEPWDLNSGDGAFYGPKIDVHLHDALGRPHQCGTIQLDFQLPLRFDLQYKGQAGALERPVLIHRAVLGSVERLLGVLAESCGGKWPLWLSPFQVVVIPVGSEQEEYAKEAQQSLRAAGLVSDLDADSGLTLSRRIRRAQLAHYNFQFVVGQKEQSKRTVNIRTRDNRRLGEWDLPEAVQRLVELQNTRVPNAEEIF
# The other results are listed elsewhere or left out.
# Columns and labels:
# Assay in all cases: log2 fold change, soluble protein after heating vs DMSO (PISA); higher = thermal stabilisation; K562 cells, 10 uM, 30 min; active = over 0.2 and 3.5 SD of the protein, either way, in both replicates (recomputed)
# [1] = compound: NC(=O)Nc1cc(-c2cccc(F)c2)sc1C(=O)N[C@H]1CCCNC1
# Method in brief: (§1)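 Aliquots of K562 cells (2×10^6 cells/mL) treated with 10 μM compound for 30 min were heated for 3 min over 48°C-58°C. After pooling and extraction in PBS with 0.5% NP-40 at 4°C, soluble protein from a 21,000xg, 90 min spin was quantified by TMTpro 16plex LC-MS/MS with channel sums equalised. Thermal stability is expressed against control samples, from duplicates, as a log2 fold change.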
# [2] = compound: NC(=O)c1cnc(N[C@@H]2CCCC[C@@H]2N)nc1Nc1cccc(-n2nccn2)c1
# Method in brief: as §1
# [3] = compound: NC1(c2ccc(-c3nc4ccn5c(=O)[nH]nc5c4cc3-c3ccccc3)cc2)CCC1
# Method in brief: as §1
# [4] = compound: NCC(=O)Nc1ccc(-n2nc(C(F)(F)F)cc2-c2ccc3c(ccc4ccccc43)c2)cc1
# Method in brief: as §1
# entinostat = compound: Nc1ccccc1NC(=O)c1ccc(CNC(=O)OCc2cccnc2)cc1 [entinostat]
# Method in brief: as §1
# vorinostat = compound: O=C(CCCCCCC(=O)Nc1ccccc1)NO [vorinostat]
# Method in brief: as §1
# citarinostat = compound: O=C(CCCCCCNC(=O)c1cnc(N(c2ccccc2)c2ccccc2Cl)nc1)NO [citarinostat]
# Method in brief: as §1
# silmitasertib = compound: O=C(O)c1ccc2c(c1)nc(Nc1cccc(Cl)c1)c1ccncc12 [silmitasertib]
# Method in brief: as §1
# [5] = compound: O=C1NC(=O)C(c2cnc3ccccn23)=C1c1cn2c3c(cc(F)cc13)CN(C(=O)N1CCCCC1)CC2
# Method in brief: as §1
# [6] = compound: c1cc(OCCN2CCCCC2)cc(-c2n[nH]c3ccc(-c4nnc[nH]4)cc23)c1
# Method in brief: as §1
Target,log2 fold change [1],log2 fold change [2],log2 fold change [3],log2 fold change [4],log2 fold change (entinostat),log2 fold change (vorinostat),log2 fold change (citarinostat),log2 fold change (silmitasertib),log2 fold change [5],log2 fold change [6]
SUPT5H (UniProt O00267),inactive: -0.031,inactive: -0.049,inactive: -0.129,inactive: -0.095,inactive: 0.029,inactive: 0.043,inactive: 0.074,inactive: 0.038,inactive: -0.115,inactive: -0.028
TAL1 (UniProt P17542),inactive: 0.035,inactive: 0.008,inactive: -0.039,inactive: -0.048,inactive: -0.044,inactive: -0.028,inactive: 0.031,inactive: 0.009,inactive: -0.072,inactive: -0.032
TAPT1 (UniProt Q6NXT6),inactive: -0.016,inactive: -0.038,inactive: -0.057,inactive: 0,inactive: -0.082,inactive: -0.067,inactive: 0.017,inactive: 0.024,inactive: 0.017,inactive: 0.01
STOM (UniProt P27105),inactive: -0.104,inactive: -0.043,inactive: -0.069,inactive: -0.019,inactive: -0.003,inactive: 0.025,inactive: 0.007,inactive: 0.067,inactive: 0.042,inactive: -0.091
SURF1 (UniProt Q15526),inactive: -0.007,inactive: 0.014,inactive: -0.176,inactive: -0.135,inactive: 0.077,inactive: 0.059,inactive: 0.112,inactive: -0.04,inactive: -0.031,inactive: -0.043
SYAP1 (UniProt Q96A49),inactive: 0.019,inactive: -0.077,inactive: -0.121,inactive: 0.024,inactive: 0.019,inactive: 0.028,inactive: 0.06,inactive: 0.025,inactive: -0.015,inactive: 0.024
TANK (UniProt Q92844),inactive: 0.076,inactive: 0.041,inactive: -0.035,inactive: 0.023,inactive: -0.001,inactive: -0.084,inactive: -0.022,inactive: 0.064,inactive: 0.028,inactive: 0.01
SUPV3L1 (UniProt Q8IYB8),inactive: -0.024,inactive: -0.054,inactive: -0.072,inactive: -0.033,inactive: 0.011,inactive: -0.007,inactive: 0.035,inactive: 0.03,inactive: -0.019,inactive: -0.029
SUMO1 (UniProt P63165),inactive: -0.006,inactive: -0.116,inactive: 0.071,inactive: -0.074,inactive: -0.01,inactive: -0.086,inactive: -0.063,inactive: -0.012,inactive: 0.045,inactive: -0.087
TACC1 isoform 2 (UniProt O75410),inactive: -0.039,inactive: -0.025,inactive: -0.042,inactive: -0.013,inactive: -0.028,inactive: -0.022,inactive: 0.028,inactive: 0.04,inactive: -0.046,inactive: -0.01
STT3A (UniProt P46977),inactive: -0.004,inactive: -0.04,inactive: -0.045,inactive: -0.029,inactive: 0.019,inactive: -0.022,inactive: 0.018,inactive: 0.027,inactive: 0.002,inactive: -0.072
STX6 (UniProt O43752),inactive: -0.017,inactive: 0.046,inactive: 0.032,inactive: 0.007,inactive: -0.039,inactive: -0.049,inactive: 0.008,inactive: 0.037,inactive: -0.064,inactive: -0.053
SUGP1 (UniProt Q8IWZ8),inactive: 0,inactive: -0.05,inactive: -0.073,inactive: -0.071,inactive: 0.054,inactive: 0.077,inactive: 0.074,inactive: 0.101,inactive: -0.065,inactive: 0.045
SUCLG1 (UniProt P53597),inactive: -0.037,inactive: -0.077,inactive: -0.106,inactive: -0.059,inactive: 0.012,inactive: 0,inactive: 0.043,inactive: -0.037,inactive: -0.073,inactive: -0.049
TARS2 (UniProt Q9BW92),inactive: 0.008,inactive: -0.018,active: -0.27,inactive: -0.031,inactive: 0.011,inactive: -0.051,inactive: 0.038,inactive: -0.005,inactive: -0.057,inactive: -0.008

# 3 neighbouring records already listed, for reference:
Target,log2 fold change [1],log2 fold change [2],log2 fold change [3],log2 fold change [4],log2 fold change (entinostat),log2 fold change (vorinostat),log2 fold change (citarinostat),log2 fold change (silmitasertib),log2 fold change [5],log2 fold change [6]
STX6 (UniProt O43752),inactive: -0.017,inactive: 0.046,inactive: 0.032,inactive: 0.007,inactive: -0.039,inactive: -0.049,inactive: 0.008,inactive: 0.037,inactive: -0.064,inactive: -0.053
SUGP1 (UniProt Q8IWZ8),inactive: 0,inactive: -0.05,inactive: -0.073,inactive: -0.071,inactive: 0.054,inactive: 0.077,inactive: 0.074,inactive: 0.101,inactive: -0.065,inactive: 0.045
SUCLG1 (UniProt P53597),inactive: -0.037,inactive: -0.077,inactive: -0.106,inactive: -0.059,inactive: 0.012,inactive: 0,inactive: 0.043,inactive: -0.037,inactive: -0.073,inactive: -0.049
